Results as given in PubChem BioAssay AID1347426 (Functional Genomics Laboratory (NCATS/FGL), 2020).
Screen size: about 31,000 sequences; about 1,400 (4.5%) were called active.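 The calls were made as follows: active = median seed-adjusted z-score above 1 or below -1; inactive = the rest.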 The list shows a part of the results.

Experiment: Novel Modifiers of Survival Motor Neuron (SMN) Protein: Gene Identification via Genome-wide siRNA Screen;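 also: luminescence tracks full-length SMN protein made from the SMN2 reporter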
Details: HEK293T SMN2-luciferase reporter, siRNA knockdown, 72 h; actives lie on both sides
Procedure, shortened: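 Genome-wide siRNA screen (10418 genes, 3 siRNAs each, 1 pmol per well) by reverse transfection in HEK293T cells stably carrying an SMN2-luciferase reporter; luminescence after 72 hours, normalized to negative-control siRNA, log10-transformed, MAD-scored.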

| Sequence | median seed-adjusted z-score |
| --- | --- |
| AUGCUGAUCAGGAAAAGUATT against TEX13A | active: -1.22 |
| GAGACAUCGUUGUGCGGAATT against CDYL2 | inactive: -0.379 |
| GCCUUAGCAAAUAUCCUUATT against HMGCLL1 | inactive: 0.275 |
| GGAUAUCAAUUAUUACGCUTT against LIFR | inactive: 0.031 |
| CAUUUUCCGUAUUUUGCAATT against FOXN3 | inactive: -0.636 |
| GGAAGAUUUUUGGUUCUAUTT against KCND2 | inactive: -0.245 |
| CAUUGACUACUAUAAGAAATT against FGFR4 | inactive: 0.0825 |
| GAUGAGGCAUGGUACUUCUTT against SIGLEC11 | inactive: -0.395 |
| GGCUAGUGGUGACAAAUGUTT against SRD5A3 | inactive: -0.165 |
| CGUAAAUCCCUAAUCUUUATT against FOXJ1 | inactive: -0.553 |
| CCACCUACAGAGUGUCCUATT against EMID2 | inactive: 0.0465 |
| CCAGUUGUCUAAACUAGGATT against DHRS7 | inactive: 0.255 |
| CACUUACCCUCCUCAAGUUTT against SERPINF2 | inactive: 0.629 |
| AGCCGUUUGUUGACACUAATT against NCK2 | inactive: -0.397 |
| GCCUACAUGUGCAUCCUCATT against GPR45 | inactive: 0.0287 |
| GGUUGAUGGAUUAUCUCAATT against ATP11C | inactive: 0.102 |
| GCAUGUCAGACUUCGAGAATT against PIGR | inactive: -0.35 |
| GCUCAUGUACUGCUACGUATT against NTSR2 | inactive: -0.125 |
| GGAGAAUUGUUUUGCCUGATT against ZBTB43 | inactive: 0.143 |
| CCAUUGACAUCAAAUGUGATT against HES6 | inactive: 0.71 |
| GGUAUAUGCUCGUAUGUCATT against RANBP17 | inactive: -0.123 |
| GGACUAAGCUUGCACUCAATT against HSPA2 | inactive: -0.0343 |

Single values from the list:
GGUAUAUGCUCGUAUGUCATT against RANBP17 – median seed-adjusted z-score: inactive: -0.123
GCCUACAUGUGCAUCCUCATT against GPR45 – median seed-adjusted z-score: inactive: 0.0287
GGAAGAUUUUUGGUUCUAUTT against KCND2 – median seed-adjusted z-score: inactive: -0.245
GGCUAGUGGUGACAAAUGUTT against SRD5A3 – median seed-adjusted z-score: inactive: -0.165
GCAUGUCAGACUUCGAGAATT against PIGR – median seed-adjusted z-score: inactive: -0.35

Later entries:

| Sequence | median seed-adjusted z-score |
| --- | --- |
| GCUCGGUGGAAAAACGUGATT against SCN3A | inactive: -0.0556 |
| GCAGCAGUAUUCUCGAGAATT against NRIP1 | inactive: 0.789 |
| GGCAGUUCAGUAGCUCUAATT against DHX58 | inactive: -0.302 |
| GGGCGGUCAUGGUUUUGAATT against CHST13 | inactive: -0.447 |
| CUAAUUCAACAUUACAUCATT against ZNF550 | inactive: 0.131 |
| UGACCUUGCCGAGCACUUUTT against SLC16A11 | inactive: -0.396 |
| GCGAGAAAGUUUACGGGAATT against KLF13 | inactive: -0.501 |
| GCUCAUACCUCGGAUGUCATT against GPR31 | inactive: -0.0381 |
| GUCUUUCAGGUGUACCCAUTT against GATA1 | inactive: 0.371 |
| GCUAAUCUGUGGAGGAAAATT against EXDL2 | inactive: -0.0717 |
| CAGCUACCAUGUCCCAGAUTT against CYC1 | inactive: -0.47 |
| GCGAUUGUGCAGAAACAGATT against ZNF70 | inactive: -0.558 |
| CGGAUGAAGCUGACAGUGATT against 9-Sep | inactive: -0.0175 |
| GGAAGACGGUGAACCAGAATT against SLC13A2 | inactive: 0.172 |
| GGUCAAUCCUAGUAUCUCUTT against NCOA1 | inactive: 0.537 |
| CCAUCUACCCGGGCACUUUTT against RTN4RL2 | inactive: -0.168 |
| CCAAAAUUGAAGUAAUAGATT against GTF2E2 | active: -1.32 |
| GGAUCUUUCAGCGAAUAAATT against LRGUK | inactive: 0.166 |
| GAUCGCUUCAGUAAACUAATT against RIOK3 | inactive: 0.0267 |
| GGAGUGUUUACAUCGUUUUTT against RNF2 | inactive: 0.354 |
| AGACCAAAGUACACGUUCATT against RAB39B | inactive: 0.485 |
| UGGAUUCCCUGUUCUUUGATT against PNMT | inactive: -0.559 |

Two entries from above in another layout:
Sequence	median seed-adjusted z-score
GCAGCAGUAUUCUCGAGAATT against NRIP1	inactive: 0.789
GGAGUGUUUACAUCGUUUUTT against RNF2	inactive: 0.354

(listing goes on)

| Sequence | median seed-adjusted z-score |
| --- | --- |
| GGCUGUUCCUCUAACACUATT against PIK3R5 | inactive: 0.799 |
| AGUUCAUCUCGGAAGCACATT against LMTK3 | inactive: 0 |
| GACAUCGCAUGGUACAAGATT against NFASC | inactive: 0.594 |
| GGCAUUGAGUGGUAUAGGATT against HS3ST5 | inactive: -0.725 |
| AGAAUUUUCUACACCGAGATT against CSNK1A1L | inactive: -0.5 |
| ACUUCACAGUGACACUGGATT against FPGS | inactive: -0.853 |
| CAAUCAAACUAUCGCUUCATT against TRIM4 | inactive: 0 |
| CGAGAACGGCAUAACGAGATT against CDC42BPB | inactive: -0.556 |
| GCAGAUAUGCAAUCAAAGATT against KIF1C | inactive: 0.749 |
| GGCUUGAUGGAACCACGAATT against SMARCA4 | inactive: 0.223 |
| CCACGACUUCAGACAUCAATT against SFTPA2B | inactive: -0.016 |
| GCCUUGAGACUGACCGUAATT against SIRPG | inactive: -0.109 |
| GGACCUUUUUGUUAAGUCATT against RASD1 | inactive: 0.674 |
| GAAAUUUCUUAGGAACUCATT against ADH1B | inactive: 0.325 |
| GACUUCUAGUGAUGAGAAATT against PPIH | inactive: -0.174 |
| GCAACACCGACGUAAAGAATT against ALOX5 | inactive: -0.201 |
| AGAUCCAAAUUGAGAUGGATT against ZNF221 | inactive: -0.536 |
| AGCCGUGGAUGGUAGAUCUTT against ZNF2 | inactive: -0.119 |
| CCUUGUGCGUUACAGAAGATT against SCARA3 | inactive: -0.05 |
| GAGUAAAGGUUUUAUUACATT against SLC25A16 | inactive: 0.0479 |
| CCCUUUCCAUAGCCCAGGATT against RBP3 | inactive: 0 |
| GCUGAUCUCCGUAGAUACATT against PPY | inactive: -0.0804 |

| Sequence | median seed-adjusted z-score |
| --- | --- |
| GGCCCUAUUCUGUCACGAATT against TRIM28 | inactive: -0.718 |
| GCUUUGGAGUCACAGGUCATT against EYA3 | inactive: -0.0191 |
| AGAACAUCAUCGCGCGGGATT against FOXB1 | inactive: 0.223 |
| GAAUGUUAUGAUGAACUAATT against ZNF430 | inactive: 0.681 |
| GCGUCUUGCUGCUACUCAATT against BMPER | inactive: -0.684 |
| CUUUAAAAUUAGGACCAUATT against RAB8A | inactive: -0.0436 |
| CUGUAUGAACUAAAAGUAATT against SOX1 | inactive: 0.415 |
| CAGCUAAACAGAACGAAAATT against PFDN1 | inactive: 0.212 |
| GGACUGAAGUGGUGAUUGATT against CAPN6 | inactive: 0.0288 |
| GCCUUAUACUGGAAGAAGATT against KITLG | inactive: 0.119 |
| CUGCUAAACUUGAACCGAATT against TM9SF2 | active: 1.09 |
| CAGUGGACGUGAGAACUAATT against AIFM3 | inactive: -0.727 |
| CCAAUACAGUGGAACCUAUTT against ATXN1 | inactive: -0.024 |
| GCAUGUUGAUGCCCGAAGATT against SERPINB1 | inactive: 0.734 |
| CUGAGAUUAUUGAAUAUCATT against TEC | inactive: 0.258 |
| CAGUGAUGAUGAUUCUGAATT against SNRK | inactive: 0.463 |
| CAUCCAUAGUUGAUCGAGATT against DSG1 | inactive: 0.187 |
| GGAUGAUUCGGAAGGUGAATT against ZNF467 | inactive: 0 |
| GGAUCUACAGUUAUGGUCATT against NIPA2 | inactive: -0.103 |
| CACGGAUUCUUGUUGGAAATT against RAB33B | inactive: -0.758 |
| CUAUUGUAUUUCUAUCAUATT against CXCL6 | inactive: 0.802 |
| GAGGCAAUAUGAAACGAGUTT against CKMT2 | inactive: -0.862 |

| Sequence | median seed-adjusted z-score |
| --- | --- |
| UGACGUAGGCAUAAACGGATT against PCDH11Y | inactive: 0.186 |
| GGAAUUUCGGCACUCAGAATT against CHIT1 | inactive: -0.578 |
| GGACCUGCAACAUUUCUGATT against PGLYRP4 | inactive: 0.13 |
| GCACUGCGAAGGUUCAGAATT against PPP1R3B | inactive: -0.298 |
| CAUCAGAGCUGGAUCUAGATT against PDGFRA | inactive: 0.0399 |
| GGAUGAUAUCAACUGCUAUTT against ACVR2A | inactive: -0.22 |
| CCAUCACGGUGAUUGCUGATT against CPNE4 | inactive: -0.0933 |
| AGGUAGUAGUGAGACGUGATT against OSCAR | inactive: 0.114 |
| GGACUUCACGAAAAGACAATT against UBE2J2 | inactive: -0.341 |
| GCCGGUAUGUCGCAAAAGATT against FLJ90650 | inactive: 0.427 |
| GGUUCUUGAUGCCUAUGAATT against WARS | inactive: -0.724 |
| GUUGAUAAGUUUUACCGAUTT against ADAM19 | inactive: 0.0996 |
| CCUUCAAUCUUCCUAGUGATT against BAT3 | inactive: 0.567 |
| GCAAGGACCGAAUUCUUAUTT against TALDO1 | inactive: 0.131 |
| GUAUGGAGCUAUCAAAGAATT against PRPSAP2 | inactive: 0.329 |
| CCAUUUACAUCGUCACGGATT against SRC | inactive: -0.0246 |
| GGACUUUGGUGUGAAUGAATT against ANXA1 | inactive: -0.114 |
| CAAGGACUGUUUCCUCAAATT against FSTL4 | inactive: 0.429 |
| GCAGCUAUCUCUGUACAGATT against MAPK8IP3 | inactive: 0.734 |
